{"source": "paper PMC3743553", "about": "(Journal of child neurology, 2012)", "origin": "cited, not measured here", "test_system": "class I histone deacetylase enzymes", "conditions": "106: histone deacetylase enzymes 1 and 3; cited from earlier work"}
{"smiles": "O=C(CCCCCCC(=O)Nc1ccccc1)NO", "note": "[suberoylanilide hydroxamic acid]", "values": [{"measurement": "mechanism of inhibition", "result": "rapid-on/rapid-off, classical competitive inhibitors"}]}
